Measured values from PubChem BioAssay AID504444 (National Center for Advancing Translational Sciences (NCATS), 2011).
In all, about 360,000 compounds went through this assay and about 7,500 (2.1%) were called active. Inconclusive means that the source gave no clear call. Such entries were picked first, then a sample of the others. The call rests on the fitted dose curve; in most records, active means well fitted inhibition curve with a large enough effect; inconclusive means small, poorly fitted or top-dose-only effect, or effect the other way; inactive means flat fitted curve, though single readings scatter. Where the call is inconclusive, the potency comes from a doubtful curve fit.

Experiment: Nrf2 qHTS screen for inhibitors; further: nearly all actives have a fitted effect of over 60% in size
Details: A549 ARE-Fluc reporter, luciferase luminescence, 18-24 h; activity change, negative = inhibition: at 46 µM (top of the series)
Method in brief: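 Quantitative HTS in A549 cells stably bearing an antioxidant response element-firefly luciferase construct. Inhibition of Nrf2-driven transcription was scored by luminescence after 18-24 h of compound exposure at 37 °C.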
On the % scale 0 is the no-effect control and ±100 the full control effect; potency means the concentration at half of the fitted maximal effect.

Row | Compound | activity change, negative = inhibition | Potency
1 | Cc1ccc(F)cc1NC(=O)C1C2CCC(O2)C1C(=O)O (configuration not stated) | inactive: 3.04% | 
2 | CCc1nc(N2CCN(C(C)=O)CC2)c(C#N)c2c1COC(C)(C)C2 | inactive: -5% | 
3 | Cc1ccccc1Nc1c(-c2cccnc2)nc2ccc(Br)cn12 |  | inconclusive: 32.6 µM [falling, single point]
4 | Nc1nc2sc3c(c2cc1C(=O)N1CCOCC1)CCCC3 | inactive: 8.87% | 
5 | CCOc1ccc(CC(=O)N/N=C(\C)c2cccnc2)cc1 |  | inconclusive: 11.6 µM [falling, partial curve]
6 | Cc1ccc(-c2nc(C#N)c(NCCN3CCCCC3)o2)cc1 | inactive: 13.1% | 
7 | COc1ccc(Nc2nc(N)nc(CSC(=S)N3CCCCC3C)n2)cc1 (configuration not stated) |  | inconclusive: 16.4 µM [activator, partial curve]
8 | COc1ccc(C(=O)CC(=O)C(=O)Nc2ccc(OC)c(Cl)c2)cc1 |  | inconclusive: 3.66 µM [activator, single point]
9 | CCOC(=O)c1c(C)oc2nc(C)nc(N3CCN(c4ccc(C(C)=O)cc4)CC3)c12 |  | inconclusive: 23.1 µM [activator, single point]
10 | CCCCNC(=O)c1cc2c(=O)n3cccc(C)c3nc2n(Cc2ccncc2)c1=N | inactive: 24.5% | 
11 | OCCN(Cc1ccccc1)Cc1cccc(Cl)c1Cl |  | inconclusive: 29.1 µM [falling, single point]
12 | Oc1ccc(-c2csc(Nc3ncccn3)n2)cc1O |  | inconclusive: 13 µM [activator, partial curve]
13 | O=C1CCc2cc(S(=O)(=O)Nc3ccc4c(c3)OCCO4)ccc2N1 |  | inconclusive: 16.4 µM [falling, partial curve, poor fit]
14 | O=C(NC(=S)Nc1ccc(Cl)cn1)c1cccs1 |  | inconclusive: 3.66 µM [activator, full curve]
15 | COc1cc(SC)ccc1C(=O)NCCOc1ccc(Cl)cc1 | inactive: -17.2% | 
16 | CCOc1ccc(S(=O)(=O)N(C)c2ccc(OCC(=O)Nc3nc4ccccc4s3)cc2)cc1 |  | active: 2.31 µM
17 | Cc1oc(C(C)(C)C)cc1C(=O)NCc1ccc2c(c1)OCO2 |  | inconclusive: 14.6 µM [falling, partial curve, poor fit]
18 | Cc1ccc(C(=O)c2cc3ccccc3o2)cc1 |  | inconclusive: 9.2 µM [activator, partial curve]
19 | Cc1ccc(-c2cn3c(n2)sc2cc(C(=O)NCCCN4CCCCC4)ccc23)cc1 |  | inconclusive: 23.1 µM [activator, single point]
20 | C#CCOCCOCCOCCNc1nc(N2CCN(C(=O)CCCCCCCCCCNC(=O)[C@H]([C@@H](C)CC)n3cc(CCCCN=C(N)N)nn3)CC2)nc(N2CCN(C(=O)CCCCCCCCCCNC(=O)[C@H](CO)n3cc(CCCSC)nn3)CC2)n1 |  | inconclusive: 16.4 µM [falling, single point]
21 | Cc1cc(C)c(S(=O)(=O)N2CCCC(C(=O)NC3CCCC3)C2)c(C)c1 (configuration not stated) |  | inconclusive: 0.92 µM [falling, full curve, poor fit]

Row | Compound | activity change, negative = inhibition | Potency
22 | Cc1ccc(NC(=O)CN2C(=O)N/C(=C/c3ccc(N4CCOCC4)cc3)C2=O)cc1 |  | inconclusive: 1.46 µM [activator, full curve]
23 | CCOc1cc(C(=S)N2CCOCC2)ccc1OS(=O)(=O)c1ccccc1 |  | inconclusive: 14.6 µM [falling, partial curve]
24 | O=C(COc1ccc(Cl)cc1)Nc1ncc([N+](=O)[O-])s1 |  | inconclusive: 32.6 µM [falling, single point]
25 | Cc1c(CC(=O)NCC(=O)N[C@H](Cc2ccccc2)C(=O)O)c(=O)oc2cc(O)ccc12 |  | inconclusive: 0.116 µM [activator, full curve, poor fit]
26 | COc1nc(N2CCCCCC2)nc(N2CCCCCC2)n1 |  | inconclusive: 29.1 µM [falling, single point]
27 | COc1cc2c(cc1OC)CN(C(=O)COc1ccccc1[N+](=O)[O-])CC2 |  | inconclusive: 1.16 µM [activator, partial curve, poor fit]
28 | CCSc1nnc(NC(=O)c2ccccn2)s1 |  | inconclusive: 10 µM [falling, partial curve, poor fit]
29 | CCSc1nc2ccccc2n1C(=O)/C=C\c1ccc(OC)c(OC)c1 |  | inconclusive: 29.1 µM [falling, single point]
30 | CCOc1cc(CNCCSc2nnnn2C)cc(Br)c1OCc1ccc(F)cc1 |  | inconclusive: 32.6 µM [falling, partial curve, poor fit]
31 | Cc1ccc(OCCn2cc(C(=O)C3CCCCC3)c3ccccc32)cc1 | inactive: 4.28% | 
32 | Cc1cc2c(s1)c1cnn(Cc3c(F)ccc(C)c3Cl)c(=O)c1n2C | inactive: 13.4% | 
33 | CC(C)C(=O)N1CCN(c2nc3ccc(Cl)cc3s2)CC1 |  | inconclusive: 16.4 µM [falling, single point]
34 | CCOC(=O)C1(CC2CC2)CCN(C(=O)c2cc(C)nc3ccc(CC)cc23)CC1 |  | inconclusive: 29.1 µM [activator, single point]
35 | O=C1NC(c2cccc3ccccc23)Nc2ccccc21 (configuration not stated) |  | inconclusive: 9.2 µM [activator, partial curve]
36 | O=C(NC(NCC1CCCO1)C(Cl)(Cl)Cl)c1cccc2ccccc12 (configuration not stated) |  | inconclusive: 25.9 µM [falling, single point]
37 | COCc1nnc(NC(=O)CCCCCN2C(=O)c3ccccc3C2=O)s1 |  | inconclusive: 16.4 µM [falling, partial curve, poor fit]
38 | CC1=C(C(=O)Nc2ccc([N+](=O)[O-])cc2)C(c2cccc(C(F)(F)F)c2)NC(=S)N1c1ccccc1 (configuration not stated) |  | inconclusive: 29.1 µM [falling, single point]
39 | Cc1cc(C)cc(NC(=O)C2CCN(S(=O)(=O)c3ccc4c(c3)NC(=O)C(C)S4)CC2)c1 (configuration not stated) | inactive: -15.8% | 
40 | CCS(=O)(=O)c1nc(S(=O)(=O)c2ccc(Cl)cc2)c(N2CCc3ccccc3C2)s1 |  | inconclusive: 18.4 µM [falling, partial curve]
41 | COC(=O)c1ccccc1NC(=O)c1c(Br)cnn1C |  | inconclusive: 3.26 µM [activator, partial curve]
42 | Cc1ncc([N+](=O)[O-])n1CCOC(=O)NC(NCc1ccccc1)C(Cl)(Cl)Cl (configuration not stated) |  | inconclusive: 5.8 µM [falling, partial curve, poor fit]

In another format: entries from further up

| Row | Compound | activity change, negative = inhibition | Potency |
| --- | --- | --- | --- |
| 22 | Cc1ccc(NC(=O)CN2C(=O)N/C(=C/c3ccc(N4CCOCC4)cc3)C2=O)cc1 |  | inconclusive: 1.46 µM [activator, full curve] |
| 23 | CCOc1cc(C(=S)N2CCOCC2)ccc1OS(=O)(=O)c1ccccc1 |  | inconclusive: 14.6 µM [falling, partial curve] |
| 24 | O=C(COc1ccc(Cl)cc1)Nc1ncc([N+](=O)[O-])s1 |  | inconclusive: 32.6 µM [falling, single point] |
